This note sets out measurements from PubChem BioAssay AID2685 (National Center for Advancing Translational Sciences (NCATS), 2010).

The list shows a part of the results. These are further read-outs of the screen, such as a control signal, another cell line or another target. No call is given for them. The list favours compounds with an active or inconclusive main result. Potencies come from curve fits of mixed quality, noted in brackets.

The nature of the assay: qHTS Assay for Lipid Storage Modulators in Drosophila S3 Cells.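 For cell number change: cells counted by Cell Tracker Red CMTPX staining in the red channel.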 The settings on record: BODIPY lipid droplet fluorescence, 18-24 h; for cell number change: measured here: cell count max response, cells fed with added oleic acid. The method, boiled down: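 Drosophila S3 cells got compounds at several concentrations plus oleic acid (400 uM solution). Laser-scanning cytometry with 488 nm excitation read lipid droplets at 500-530 nm and cells at 575-640 nm. Percent activity was relative to 20 uM Triacsin C.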
A general note: qHTS replaces the single test concentration by a dilution series.

The mark [1] stands for this setting: measured here: cell number channel AC50, cells fed with added oleic acid.
The mark [2] stands for this setting: measured here: lipid fluorescence (Fed channel) AC50, cells fed with added oleic acid.

One may read the AC50 as the midpoint of the concentration-response curve, whichever way the signal moves. Read a low AC50 as greater potency. Consider `CC1CC(NC(=O)C2(C)CC2(Cl)Cl)CC(C)(C)C1` (centres undefined), for which the cell number change worked out at 3.65%. Moreover, the AC50 under setting [1] is 0.366 µM [falling, full curve]. In addition, the AC50 under setting [2] is 0.13 µM [falling, full curve]. Consider `CC(C)(C)NC(=O)CSc1nc(N)cc(=O)[nH]1`, for which the cell number change was -40.5%. Further, under setting [1], the AC50 was 0.184 µM [falling, full curve, poor fit]. On to `CCN1C(=O)Cc2cc(S(=O)(=O)NCCc3ccccc3)ccc21`, for which the cell number change stood at 20%. For the compound `O=C(Nc1ccccc1)Nc1ccc(F)c([N+](=O)[O-])c1`, the cell number change was -22%. Also, under setting [2], the AC50 was 0.082 µM [rising, full curve, poor fit]. As for `CN1C(=O)C2(C(C#N)=C(N)N(c3cc(Cl)cc(Cl)c3)C3=C2C(=O)CCC3)c2ccccc21` (centres undefined), the cell number change was -32.6%. Besides, the AC50 under setting [1] is 0.82 µM [falling, full curve, poor fit]. Further, under setting [2], the AC50 is 29.1 µM [falling, single point].

`CCOc1cccc2c1OC1(C)CC2NC(=O)N1c1cccc(C(=O)NCc2ccccn2)c1` (centres undefined): the cell number change is 6.8%. The same measure, in the same setting: for `N#Cc1ccc(S(=O)(=O)N2CCN(CC(=O)Nc3ccccc3C(=O)NC3CC3)CC2)cc1` the value was 4.39%. Take `CCOC(=O)c1c(NC(=O)CSc2nnc(-c3c[nH]c4ccccc34)n2CC)sc2c1CCCC2`: the cell number change was -6.64%. The half-maximal activity concentration (AC50) under setting [2] was 2.31 µM [rising, partial curve]. As for `COc1ccc(S(=O)(=O)Nc2ccccn2)cc1C`, the cell number change was determined as 5.1%. Moreover, the AC50 under setting [2] is 0.291 µM [rising, full curve, poor fit]. As for `Nc1cc([N+](=O)[O-])ccc1N1C(=O)CCCC1=O`, the cell number change turned out to be 12.8%. Under setting [2], the AC50 is 6.51 µM [falling, single point]. Regarding `O=C(COc1ccccc1Cl)Nc1nnc(S(=O)(=O)N2CCCCCC2)s1`, the cell number change worked out at 19.8%. For the same compound, the AC50 under setting [2] is 25.9 µM [falling, single point].

On to `O=C(CCN1C(=O)/C(=C/c2ccc(F)cc2)SC1=S)NCCc1ccc(O)cc1`, for which the cell number change was 9.9%. Besides, under setting [2], the AC50 was 0.13 µM [rising, single point]. For `Cn1c(CCC(=O)OCC(=O)NCC(F)(F)F)nc(=O)c2ccccc21`, the cell number change is -33.9%. Further, under setting [1], the AC50 is 2.59 µM [falling, full curve]. Besides, the AC50 under setting [2] is 3.66 µM [falling, full curve]. `CC(C)OP(=O)(OC(C)C)C(O)c1cccc([N+](=O)[O-])c1` (centres undefined): the cell number change is -2.69%. Take `Cn1c(=O)cc(SCC(=O)N2CCCC2)c2ccc(Cl)cc21`: the cell number change is -17.9%. In addition, under setting [2], the AC50 was 32.6 µM [falling, partial curve, poor fit]. `O=C(NNC(=O)c1cccc(-n2cccc2)c1)c1ccccc1`: the cell number change stood at 2.88%. Besides, the AC50 under setting [2] was 1.84 µM [rising, partial curve, poor fit]. Consider `Cc1c(S(=O)(=O)N2CCCC(C(=O)O)C2)cnn1C` (centres undefined), for which the AC50 under setting [1] is 6.51 µM [falling, single point]. As for `COc1cc(C(CC(=O)Nc2ccccn2)N2Cc3ccccc3C2=O)cc(OC)c1OC` (centres undefined), the cell number change was -34%. Further, the AC50 under setting [2] is 0.00517 µM [falling, full curve, poor fit]. `CNC(=O)C1(C(F)(F)F)C/C(=C\CCO)CCCO1` (centres undefined): the cell number change is 23.6%. Also, under setting [1], the AC50 was 0.206 µM [rising, full curve, poor fit]. Besides, under setting [2], the AC50 was 5.8 µM [rising, full curve].

On to `O=C(CN1CC[n+]2c(-c3cccs3)csc21)c1ccc(Br)cc1`, for which the cell number change was found to be 33.5%. The AC50 under setting [1] is 10.3 µM [rising, partial curve, poor fit]. As for `CCCCn1c(N)c(S(=O)(=O)c2ccc(C)cc2)c2nc3ccccc3nc21`, the cell number change is -40.8%. Also, the AC50 under setting [1] is 20.6 µM [falling, single point]. The AC50 under setting [2] was 3.66 µM [rising, single point]. With `COc1ccccc1N(CC(=O)Nc1ccc2c(c1)OCO2)S(=O)(=O)c1ccccc1`, the cell number change was -13.6%. The AC50 under setting [1] was 2.59 µM [falling, single point]. Further, the AC50 under setting [2] is 6.51 µM [falling, single point]. `CC(C)(C)NC(=O)CN(C(=O)CS(=O)CC(=O)Nc1ccc(F)cc1)c1ccccc1` (centres undefined): the cell number change worked out at 1.05%. In addition, the AC50 under setting [1] was 6.51 µM [falling, single point]. For the same compound, under setting [2], the AC50 is 6.51 µM [falling, single point]. As for `CCOc1cc(NC(=S)Nc2ccccc2)c(OCC)cc1NC(=O)c1ccccc1`, the cell number change was -18.4%. For the compound `COc1ccc(CNC(=O)C2CCN(S(=O)(=O)c3ccc4c(c3)CC(C)N4C(=O)C3CC3)CC2)cc1` (centres undefined), the cell number change stood at 0.76%. In addition, the AC50 under setting [2] was 2.91 µM [rising, full curve, poor fit].

Regarding `O=S(=O)(c1ccc(-c2nnco2)cc1)N1CCCCC1`, the cell number change was 1.39%. Take `Cc1cc(Cl)ccc1Oc1nc(-c2ccccc2)ncc1S(C)(=O)=O`: the AC50 under setting [2] is 0.58 µM [rising, single point].

Consider `COc1cc(CN2CCCC(C(=O)c3ccc4c5c(cccc35)CC4)C2)cc(OC)c1O` (centres undefined), for which the cell number change is -59.7%. Further, the AC50 under setting [1] is 29.1 µM [falling, single point]. The AC50 under setting [2] is 0.103 µM [rising, full curve, poor fit]. For the compound `C=CCn1c(SCc2c(F)cccc2Cl)nnc1-c1ccco1`, the cell number change was 1.27%. For the same compound, under setting [2], the AC50 was 4.11 µM [rising, full curve]. Consider `Cc1ccc(C(=O)OC2CCOC2=O)cc1NC(=O)c1ccco1` (centres undefined), for which the cell number change was 3.44%. The AC50 under setting [2] is 3.66 µM [rising, single point]. As for `CCOc1ccc(S(=O)(=O)N(CC)CC(=O)NCc2ccncc2)cc1C`, the cell number change turned out to be 21.8%. Besides, under setting [2], the AC50 was 16.4 µM [rising, partial curve].

In the case of `Cc1ccnc(NC(=O)c2ccc(OCC3CCCO3)cc2)c1` (centres undefined), the cell number change is 9.64%. With `CCC(C(=O)OC)n1cnc2c(oc3ccccc32)c1=O` (centres undefined), the cell number change is -9.44%. The AC50 under setting [2] was 6.51 µM [falling, single point]. With `Cc1ccc(OCC(=O)OCC(=O)c2ccccc2)cc1C`, the cell number change amounted to 15.7%.

As for `Cc1ccc(S(=O)(=O)NCCC(=O)N2CCCCCCC2)cc1`, the cell number change was -18.7%. Further, the AC50 under setting [2] is 0.291 µM [falling, full curve, poor fit]. Regarding `Cc1cnc(NC(=O)c2cc3ccccc3o2)s1`, the cell number change was determined as 32.6%. Further, the AC50 under setting [1] is 6.51 µM [rising, single point]. In addition, the AC50 under setting [2] is 6.51 µM [rising, single point]. Consider `CCOC(=O)N1CCN(CC(=O)n2c(C)c(C)c3ccccc32)CC1`, for which the cell number change was -3.62%. The AC50 under setting [2] was 0.092 µM [falling, full curve, poor fit]. As for `Cc1ccc(OC(=O)N2CCOCC2)cc1`, the cell number change came to 14.9%. Further, the AC50 under setting [2] was 0.0731 µM [rising, full curve, poor fit].

Turning to `Cc1ccc(N2C(=O)c3ccccc3C(C)(C)C2=O)cc1`, the cell number change was determined as 5.25%. Take `CCOc1ccc(Br)cc1S(=O)(=O)Nc1ccc(Cl)c(S(=O)(=O)N(CC)c2ccccc2)c1`: the cell number change was -25.6%. Under setting [1], the half-maximal activity concentration (AC50) is 0.461 µM [falling, full curve, poor fit]. Turning to `Cc1ccc(NC(=O)CNC2CCS(=O)(=O)C2)cc1C` (centres undefined), the concentration at half-maximal activity (AC50) is 6.51 µM [rising, single point] under setting [1] and 0.731 µM [falling, single point] under setting [2]. As for `CN1C(=O)c2ccccc2C(C(=O)NCCCN2CCCC2)C1c1c[nH]c2ccccc12` (centres undefined), the cell number change came out at 5.8%. Also, the AC50 under setting [2] was 3.66 µM [falling, partial curve]. Turning to `O=C(NNC(=O)c1ccncc1)c1ccccc1`, the cell number change amounted to 19.7%. The AC50 under setting [2] was 25.9 µM [rising, single point]. Turning to `CC(C)(C)n1nnnc1C(c1cccs1)N1CCCc2ccccc21` (centres undefined), the cell number change was -33.7%. Also, under setting [1], the AC50 was 5.8 µM [falling, partial curve, poor fit]. For the same compound, under setting [2], the AC50 is 6.51 µM [falling, partial curve, poor fit]. As to `O=C(Nc1ccc2c(c1)OCO2)C1CCCN1C(=O)Nc1cccc(F)c1` (centres undefined), the cell number change was 2.62%. The same measure, in the same setting: for `CC(=O)Nc1ccc(NC(=O)COc2cc(O)c3c(c2)OC(C)(C)CC3=O)cc1` the value was 2.33%. For `COc1cccc(C(=O)NC2CCCN(C3Cc4ccccc4C3)C2)c1OC` (centres undefined), the AC50 under setting [2] was 0.13 µM [falling, full curve, poor fit].

For the compound `Cc1cccc(NC(=O)C2CCCN(S(=O)(=O)c3cccs3)C2)c1C` (centres undefined), the cell number change is -2.25%. Also, the AC50 under setting [2] was 29.1 µM [rising, single point].

Turning to `COCCNC(=O)c1nn2c(C(F)(F)F)cc(-c3ccccc3)nc2c1Cl`, the cell number change came out at 43.2%. Moreover, the AC50 under setting [1] is 32.6 µM [rising, partial curve, poor fit]. Also, the AC50 under setting [2] is 29.1 µM [rising, single point].

Regarding `COc1ccc(CN2CCSCC2)c(OC)c1C`, the AC50 under setting [2] was 0.206 µM [rising, full curve, poor fit].

In the case of `O=C(NCC1CCCCC1)c1cccc(S(=O)(=O)NCc2cccnc2)c1`, the AC50 under setting [1] was 0.00517 µM [rising, full curve, poor fit]. Take `Cn1cccc1C(=O)NC1CCCCCC1`: the cell number change is -6.64%. Moreover, under setting [2], the AC50 is 3.26 µM [rising, partial curve]. On to `Cc1c(Cl)cccc1NC(=S)NCCC(c1ccccc1)c1ccccc1`, for which the cell number change was -11.9%. For the same compound, the AC50 under setting [2] is 32.6 µM [falling, partial curve].

On to `COc1ccc(C(=O)Cc2cc3ccccc3oc2=O)cc1`, for which the AC50 under setting [2] is 3.66 µM [rising, full curve].

In the case of `CC1(C)C(=O)Nc2ccccc2N1C(=O)COC(=O)C12CC3CC(CC(O)(C3)C1)C2`, the cell number change is -13.3%. For the same compound, the AC50 under setting [1] is 6.51 µM [falling, single point]. Turning to `COc1ccc(C(=O)Nc2ccc3oc(-c4cccc(F)c4)nc3c2)cc1OC`, the cell number change was 6.51%. In addition, the AC50 under setting [2] was 6.51 µM [rising, partial curve]. `C=CCSc1nc2c(cnn2-c2ccc(C)c(C)c2)c(=O)[nH]1`: the cell number change is -15.9%. Moreover, the AC50 under setting [2] was 20.6 µM [falling, single point]. On to `Cc1nnc(N/N=C/c2ccc(-c3ccc(Br)cc3)o2)n1N`, for which the cell number change was found to be 26.8%. In addition, the AC50 under setting [1] was 2.31 µM [rising, partial curve, poor fit].

`CCc1nonc1NC(=O)c1oc2ccc(Br)cc2c1C`: the cell number change is -16.2%. On to `COc1ccc(C(=O)OCC(=O)Nc2cc(S(=O)(=O)N3CCOCC3)ccc2N2CCCC2)cc1`, for which, under setting [2], the AC50 was 5.8 µM [falling, single point].

Regarding `COc1ccc(Cn2c(=S)[nH]c3ccccc32)cc1`, the cell number change was -7.87%. Also, the AC50 under setting [2] is 0.231 µM [rising, partial curve].
